According to the supplement of paper PMC10735217:
Where a name gives a salt, the structure may show the parent alone. The list shows a part of the results. Repeats in this data set agree poorly, so a single value says little.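 In a drug-repurposing library screen, luminescence reads luciferase driven by eight TEAD-binding elements, stably integrated into human kidney-derived cells. Compounds scoring over five robust Z scores above the plate mean are called hits.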

System: HEK293A TEAD-LUC reporter
Assay: TEAD-luciferase reporter activity (YAP activation), robust Z score vs plate; higher = stronger YAP/TEAD activation
Conditions: 24 h

Row | Structure (SMILES) | TEAD-luciferase reporter activity (compound concentration: 200 nM) | TEAD-luciferase reporter activity (compound concentration: 10 uM) | TEAD-luciferase reporter activity (compound concentration: 2 uM)
1 | CN(C)CCC(c1ccccc1)c1ccccn1 (stereo unspecified) [Pheniramine Maleate] | inactive: -0.176 | inactive: -0.442 | 
2 | CN(C)CCC(c1ccccc1)c1ccccn1 (stereo unspecified) |  |  | inactive: -0.713
3 | CC(C)C[C@@H]1NC(=O)[C@H](Cc2ccccc2)N(C)C(=O)[C@@H](CCCNC(=N)N)NC(=O)[C@@H](CCCNC(=N)N)NC(=O)[C@H](C(C)C)NC(=O)[C@H](CC(=O)O)NC1=O | inactive: -1.04 | inactive: 1.42 | inactive: -0.625
4 | C[N+](C)(CCCCCC[N+](C)(C)C1c2ccccc2-c2ccccc21)C1c2ccccc2-c2ccccc21 | inactive: -0.854 | inactive: -1.83 | inactive: -0.473
5 | CCOC(=O)N1CCN(C(=O)[C@H](Cc2cccc(/C(N)=N\O)c2)NS(=O)(=O)c2c(C(C)C)cc(C(C)C)cc2C(C)C)CC1 [Upamostat] | inactive: -0.401 | inactive: 0.787 | inactive: -0.862
6 | CC1(C)CN(CCN2CCN(c3cccc(Cl)c3)C2=O)C1 | inactive: -1.14 | inactive: -0.786 | inactive: 0.0813
7 | N=C(N)NCCC[C@H](NC(=O)c1ccc2ccccc2c1O)C(=O)N1CCC[C@H]1C(N)=O | inactive: -1.17 | inactive: 2.83 | inactive: -0.617
8 | CC(C)(C)C(O)/C=C/c1ccc2c(c1)OCO2 (stereo unspecified) [Stiripentol] | inactive: 0.635 | inactive: 0.739 | 
9 | CC(C)(C)C(O)/C=C/c1ccc2c(c1)OCO2 (stereo unspecified) [stiripentol] |  |  | inactive: -0.838
10 | CCc1ccc(Cc2ccc3c(c2)[C@]2(OC3)O[C@H](CO)[C@@H](O)[C@H](O)[C@H]2O)cc1 [Tofogliflozin hydrate] | inactive: 0.381 | inactive: -0.704 | inactive: -0.596
11 | O=c1[nH]c2c(c3nc(-c4ccccc4F)cn13)CN(Cc1cccnc1)CC2 | inactive: 0.0463 | inactive: -0.295 | 
12 | C=CCSC[C@H](N)C(=O)O | inactive: -0.401 | inactive: 1.32 | inactive: 1.07
13 | C/C(=N/C#N)NC1=CC(C)(C)Oc2ccc(C#N)cc21 | inactive: -1.34 | inactive: -1.94 | inactive: -0.0483
14 | O=C(O)C1CN(CCCP(=O)(O)O)CCN1 (racemic) |  |  | inactive: 1.23
15 | CN(N=O)C(=O)NC(C=O)C(O)C(O)C(O)CO (stereo unspecified) [streptozocin] | inactive: -1.98 | inactive: 0.493 | inactive: 1.8
16 | C=C(NC(=O)Cc1ccc(OC)cc1)C(=O)O | inactive: 0.191 | inactive: 1.78 | inactive: 0.116
17 | COc1cc(/C=C\c2ccc(OC)c(OP(=O)([O-])[O-])c2OP(=O)([O-])[O-])cc(OC)c1OC [combretastatin A-1 diphosphate] | inactive: -1.14 | inactive: 0.4 | 
18 | CC(C)NC(=O)Cn1c(-c2cccc(Cl)c2)nc2ccc(OCCCN3CCCCC3)cc2c1=O | inactive: 0.531 | inactive: 2.67 | inactive: 0.36
19 | CN1CCN(c2cc3c(cc2F)c(=O)c(C(=O)O)cn3-c2ccc(F)cc2)CC1 [Difloxacin hydrochloride] | inactive: -0.249 | inactive: 1.74 | inactive: -0.0999
20 | NC(=O)[C@H]1CN(CCCCC(c2ccc(F)cc2)c2ccc(F)cc2)CCN1CC(=O)Nc1c(Cl)cc(N)cc1Cl | inactive: -1.18 | inactive: 0.963 | inactive: -1.29
21 | CC(C)(C)c1nnc([C@H]2O[C@@H](n3cnc4c(Nc5ccc(Cl)cc5F)ncnc43)[C@H](O)[C@@H]2O)o1 | active: 7.84 | inactive: -0.327 | inactive: -0.811
22 | CC(=O)O[C@]1(C(C)=O)CC[C@H]2[C@@H]3C[C@H](C)C4=CC(=O)C=C[C@]4(C)[C@@]3(F)[C@@H](O)C[C@@]21C [Fluorometholone acetate] | inactive: 0.838 | inactive: 2.17 | inactive: -0.134
23 | O=C(Nc1ccc(OCc2ccccc2)cc1)C1CC(=O)N(c2ccc(F)cc2)C1 (stereo unspecified) | active: 5.24 | inactive: 0.0692 | inactive: -0.478
24 | COc1cc(CN(C)CCN(C)CCC(c2ccc(F)cc2)c2ccc(F)cc2)cc(OC)c1OC | inactive: -1.58 | inactive: 0.738 | inactive: -1.12
25 | CC12C[C@H](O)[C@@]3(F)C(CCC4=CC(=O)C=CC43C)C1CC[C@]2(O)C(=O)CO (stereo partly specified) | inactive: -1.05 | inactive: 0.226 | inactive: -0.35
26 | CSCC[C@H](N=C(O)[C@@H]1CCCN1C(=O)CN=C(O)[C@H](CCCCN)N=C(O)[C@H](Cc1c[nH]cn1)N=C(O)C1CSSC[C@H](N)C(O)=NC(CCCN=C(N)N)C(=O)N2CCC[C@H]2C(O)=N[C@@H](CCCN=C(N)N)C(O)=NC(CC(C)C)C(O)=N1)C(=O)N1CCC[C@H]1C(O)=N[C@@H](Cc1ccccc1)C(=O)O (stereo partly specified) | inactive: -0.0978 | inactive: -0.0999 | 

Row | Structure (SMILES) | TEAD-luciferase reporter activity (compound concentration: 200 nM) | TEAD-luciferase reporter activity (compound concentration: 10 uM) | TEAD-luciferase reporter activity (compound concentration: 2 uM)
27 | CCCCN(CCN(CC)CC)C(=O)c1cccc2ccccc12 | inactive: -0.0585 | inactive: 1.08 | inactive: -0.99
28 | CC(C)C1NC(=O)C(CCCCN)NC(=O)C(CC2=NCc3ccccc32)NC(=O)C(Cc2ccc(O)cc2)NC(=O)C(NC(=O)C(N)Cc2ccc3ccccc3c2)CSSCC(C(=O)NC(C(N)=O)C(C)O)NC1=O (stereo unspecified) [lanreotide] | inactive: -0.73 | inactive: -0.215 | inactive: -0.316
29 | NC(N)=NCCNS(=O)(=O)c1cccc2cnccc12 | inactive: -0.813 | inactive: -0.596 | inactive: -0.398
30 | Cc1c(C)c2c(c(C)c1O)CCC(C)(CC[P+](c1ccccc1)(c1ccccc1)c1ccccc1)O2 (stereo unspecified) | inactive: 0.114 | inactive: 0.0917 | inactive: 0.372
31 | COc1cc([C@@H](O)[C@@H](CC2Cc3ccccc3C2)Cn2ccc(CCC(=O)O)c2)cc(OC)c1C | inactive: -1.63 | inactive: -0.245 | inactive: -0.693
32 | CCCCN1C(=O)C(=O)N(CCCC)C1=S | inactive: 2.04 | inactive: 0.332 | inactive: -2.09
33 | O=C1N=C(O)NC1(c1ccccc1)c1cccs1 (stereo unspecified) | inactive: -0.358 | inactive: -0.399 | inactive: -0.73
34 | CC(C)S(=O)(=O)NC[C@H](C)c1ccc(NC(=O)c2cc(F)cc(F)c2)cc1 | inactive: -1.5 | active: 7.35 | inactive: -1.66
35 | NC(=O)[C@@H]1CCCN1C(=O)[C@H](Cc1c[nH]cn1)NC(=O)[C@@H]1CCC(=O)N1 [protirelin] | inactive: 1.8 | inactive: -1.33 | inactive: -0.495
36 | COc1cc2c(cc1O)C(C1(c3ccccc3Cl)CC1)N(C)CC2 (stereo unspecified) | inactive: 1.59 | inactive: 2.33 | inactive: -0.88
37 | CC1(C)C(=O)c2ccc(C#N)cc2[C@@H](Oc2ccc(=O)[nH]n2)[C@@H]1O | inactive: 1.35 | inactive: -0.487 | inactive: 0.211
38 | Nc1ncnc2c1ncn2[C@H]1C=C[C@@H](CO)O1 [CF-1001 metabolite] | inactive: -0.815 | inactive: -0.52 | inactive: 0.545
39 | C[C@H](N)C(=O)N[C@@]1(C(=O)O)CC[C@H]2[C@H](C(=O)O)[C@H]21 | inactive: -0.0805 | inactive: -0.645 | inactive: -0.11
40 | CC1(C)Oc2ccc(C#N)cc2C2(c3cccc[n+]3[O-])OC12 (stereo unspecified) | inactive: -0.847 | inactive: -0.569 | inactive: 0.656
41 | CS(=O)(=O)N1CCc2c(-c3cnc(N)nc3)nc(N3CCOCC3)nc21 | inactive: -0.913 | inactive: 1.21 | inactive: -1.24
42 | CCC(CC)n1ncn(-c2ccc(N3CCN(c4ccc(OC[C@@H]5CO[C@@](Cn6cncn6)(c6ccc(F)cc6F)C5)cc4)CC3)cc2)c1=O | inactive: 0.105 | inactive: -1.56 | inactive: -0.514
43 | O=C1c2cccc3c2[C@H](CCC3)CN1[C@@H]1CN2CCC1CC2 [Palonosetron hydrochloride] | inactive: 1.36 | inactive: 0.837 | 
44 | O=C1c2cccc3c2[C@H](CCC3)CN1[C@@H]1CN2CCC1CC2 [palonosetron hydrochloride] |  |  | inactive: -1.28
45 | CCCC(Oc1ccc(C(=O)c2cc(CCCC(=O)O)n3ccccc23)cc1)c1ccc(CC(C)C)cc1 (stereo unspecified) | inactive: 0.701 | inactive: 1.49 | inactive: 0.354
46 | CCNC(=S)NS(=O)(=O)c1cnccc1NC1CCCCCCC1 | inactive: -1.07 | inactive: -0.715 | inactive: 0.217
47 | CC(C)CCN1CCC2(CC1)NC(=O)c1ccccc1O2 | active: 5.29 | inactive: 1.96 | 
48 | CCC(C)SSc1ncc[nH]1 (stereo unspecified) | inactive: 1.08 | inactive: 0.753 | inactive: 2.8
49 | C[N+](C)([O-])CCCN1c2ccccc2CCc2ccccc21 | inactive: -1.19 | inactive: 0.211 | inactive: 0.566
50 | COc1ccc([C@@H]2CC(=O)c3c(O)cc(OC4OC(COC5OC(C)C(O)C(O)C5O)C(OC5OC(CO)C(O)C(O)C5O)C(O)C4O)cc3O2)cc1O (stereo partly drawn) [alpha-Glucosylhesperidin] | inactive: -0.868 | inactive: -0.288 | inactive: -0.58
51 | CCCCCCOc1ccc(/C=N/c2ccc(CCCCCC)cc2)c(O)c1 | inactive: -0.642 | inactive: 1.55 | inactive: -0.474
52 | N#C[C@@H]1CCCN1C(=O)CNC12CC3CC(CC(O)(C3)C1)C2 [Vildagliptin] | inactive: 0.239 | inactive: 0.33 | inactive: -2.17

Given as a markdown table: part of the list above

| Row | Structure (SMILES) | TEAD-luciferase reporter activity (compound concentration: 200 nM) | TEAD-luciferase reporter activity (compound concentration: 10 uM) | TEAD-luciferase reporter activity (compound concentration: 2 uM) |
| --- | --- | --- | --- | --- |
| 34 | CC(C)S(=O)(=O)NC[C@H](C)c1ccc(NC(=O)c2cc(F)cc(F)c2)cc1 | inactive: -1.5 | active: 7.35 | inactive: -1.66 |
| 35 | NC(=O)[C@@H]1CCCN1C(=O)[C@H](Cc1c[nH]cn1)NC(=O)[C@@H]1CCC(=O)N1 [protirelin] | inactive: 1.8 | inactive: -1.33 | inactive: -0.495 |
